# ± gives the standard deviation of the averaged measurements. The list shows a part of the results, in another mix than the full data.
# Experiments:
# Test in all cases: NP40-soluble protein abundance relative to vehicle (solubility fold change) (ratio); higher = more soluble protein in presence of AMP-PNP
# [1] = molecular target: T1, UniProt Q9H6R7 and related entries
# T1 sequence (whole entry): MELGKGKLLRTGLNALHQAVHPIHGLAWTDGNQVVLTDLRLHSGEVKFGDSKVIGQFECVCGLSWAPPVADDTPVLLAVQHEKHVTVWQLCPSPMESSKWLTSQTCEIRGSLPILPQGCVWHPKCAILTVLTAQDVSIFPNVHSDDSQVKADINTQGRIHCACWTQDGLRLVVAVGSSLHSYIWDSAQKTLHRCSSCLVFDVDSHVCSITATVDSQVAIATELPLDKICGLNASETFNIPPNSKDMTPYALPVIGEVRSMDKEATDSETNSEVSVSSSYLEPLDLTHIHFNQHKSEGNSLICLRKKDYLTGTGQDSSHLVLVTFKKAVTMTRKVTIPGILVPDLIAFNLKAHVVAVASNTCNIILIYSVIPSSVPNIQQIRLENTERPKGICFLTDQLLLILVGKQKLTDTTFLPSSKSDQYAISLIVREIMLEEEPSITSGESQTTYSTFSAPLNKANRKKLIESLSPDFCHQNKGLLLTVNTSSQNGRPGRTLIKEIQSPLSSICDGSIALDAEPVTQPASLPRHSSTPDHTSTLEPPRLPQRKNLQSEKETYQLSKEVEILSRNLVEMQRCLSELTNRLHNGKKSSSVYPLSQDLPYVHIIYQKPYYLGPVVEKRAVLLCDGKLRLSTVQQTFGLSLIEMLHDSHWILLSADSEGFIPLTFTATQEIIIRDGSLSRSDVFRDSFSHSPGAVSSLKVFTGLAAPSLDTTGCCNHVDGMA
# Summary of the method: (§1)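 Each value is a fold change relative to the detergent-processed vehicle, calculated per replicate from vsn-normalised intensities. Jurkat crude lysate received eight concentrations (0.1 to 10 mM) for 10 min at room temperature and 3 min at 37 °C, then was solubilised in 0.8% NP40 with benzonase (60 min, 4 °C). The ultracentrifuged supernatant was TMT-labelled and run by LC-MS/MS in three independent experiments.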
# UniProt Q9H993 = molecular target: T2, UniProt Q9H993
# T2 sequence (whole entry): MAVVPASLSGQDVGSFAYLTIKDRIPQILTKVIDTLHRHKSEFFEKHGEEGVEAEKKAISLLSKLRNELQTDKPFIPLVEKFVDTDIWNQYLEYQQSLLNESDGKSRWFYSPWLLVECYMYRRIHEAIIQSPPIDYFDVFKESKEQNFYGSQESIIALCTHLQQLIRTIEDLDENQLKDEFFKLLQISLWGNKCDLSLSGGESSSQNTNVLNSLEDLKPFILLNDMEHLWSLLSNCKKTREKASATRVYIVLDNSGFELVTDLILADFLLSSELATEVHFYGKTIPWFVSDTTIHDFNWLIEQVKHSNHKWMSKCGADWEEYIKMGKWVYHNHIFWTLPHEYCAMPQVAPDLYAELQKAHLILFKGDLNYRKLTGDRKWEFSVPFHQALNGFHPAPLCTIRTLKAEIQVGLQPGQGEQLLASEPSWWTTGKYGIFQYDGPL
# Summary of the method: as §1
# [2] = molecular target: T3, UniProt Q9H9J4 and related entries
# T3 sequence (whole entry): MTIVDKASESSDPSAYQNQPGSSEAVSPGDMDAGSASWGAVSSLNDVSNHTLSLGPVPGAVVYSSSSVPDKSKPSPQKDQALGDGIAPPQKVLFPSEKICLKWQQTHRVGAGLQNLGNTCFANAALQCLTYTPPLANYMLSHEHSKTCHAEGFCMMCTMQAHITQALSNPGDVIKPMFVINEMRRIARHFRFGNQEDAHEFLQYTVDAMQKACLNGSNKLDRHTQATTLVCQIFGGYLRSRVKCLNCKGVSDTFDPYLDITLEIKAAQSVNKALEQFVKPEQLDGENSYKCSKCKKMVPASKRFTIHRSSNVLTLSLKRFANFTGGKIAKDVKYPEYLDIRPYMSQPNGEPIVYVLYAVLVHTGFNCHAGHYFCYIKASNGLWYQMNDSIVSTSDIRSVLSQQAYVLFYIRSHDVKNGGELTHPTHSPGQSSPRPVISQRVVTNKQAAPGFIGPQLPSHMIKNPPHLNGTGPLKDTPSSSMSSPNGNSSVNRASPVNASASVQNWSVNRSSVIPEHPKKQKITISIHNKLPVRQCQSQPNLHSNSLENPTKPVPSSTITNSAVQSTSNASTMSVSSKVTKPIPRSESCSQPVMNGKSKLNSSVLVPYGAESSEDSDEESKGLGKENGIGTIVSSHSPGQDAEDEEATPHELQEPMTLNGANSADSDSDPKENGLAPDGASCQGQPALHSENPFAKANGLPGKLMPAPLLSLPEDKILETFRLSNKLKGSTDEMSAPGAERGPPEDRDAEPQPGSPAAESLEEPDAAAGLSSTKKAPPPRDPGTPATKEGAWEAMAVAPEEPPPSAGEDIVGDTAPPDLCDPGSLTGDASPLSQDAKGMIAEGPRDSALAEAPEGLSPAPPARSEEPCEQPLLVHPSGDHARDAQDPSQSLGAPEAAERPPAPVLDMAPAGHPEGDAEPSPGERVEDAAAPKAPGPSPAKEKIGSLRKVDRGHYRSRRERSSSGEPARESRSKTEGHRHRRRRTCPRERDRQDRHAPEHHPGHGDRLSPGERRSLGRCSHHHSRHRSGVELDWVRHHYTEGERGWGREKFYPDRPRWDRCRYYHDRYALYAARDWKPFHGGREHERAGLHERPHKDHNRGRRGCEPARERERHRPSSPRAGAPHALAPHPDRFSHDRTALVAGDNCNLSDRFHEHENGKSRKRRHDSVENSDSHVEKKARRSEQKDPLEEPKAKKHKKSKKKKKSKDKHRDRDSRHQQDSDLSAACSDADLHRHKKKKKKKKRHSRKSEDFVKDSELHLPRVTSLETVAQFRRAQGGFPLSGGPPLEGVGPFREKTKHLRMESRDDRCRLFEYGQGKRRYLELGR
# Summary of the method: as §1
# [3] = molecular target: T4, UniProt Q9NPI1 and related entries
# T4 sequence (whole entry): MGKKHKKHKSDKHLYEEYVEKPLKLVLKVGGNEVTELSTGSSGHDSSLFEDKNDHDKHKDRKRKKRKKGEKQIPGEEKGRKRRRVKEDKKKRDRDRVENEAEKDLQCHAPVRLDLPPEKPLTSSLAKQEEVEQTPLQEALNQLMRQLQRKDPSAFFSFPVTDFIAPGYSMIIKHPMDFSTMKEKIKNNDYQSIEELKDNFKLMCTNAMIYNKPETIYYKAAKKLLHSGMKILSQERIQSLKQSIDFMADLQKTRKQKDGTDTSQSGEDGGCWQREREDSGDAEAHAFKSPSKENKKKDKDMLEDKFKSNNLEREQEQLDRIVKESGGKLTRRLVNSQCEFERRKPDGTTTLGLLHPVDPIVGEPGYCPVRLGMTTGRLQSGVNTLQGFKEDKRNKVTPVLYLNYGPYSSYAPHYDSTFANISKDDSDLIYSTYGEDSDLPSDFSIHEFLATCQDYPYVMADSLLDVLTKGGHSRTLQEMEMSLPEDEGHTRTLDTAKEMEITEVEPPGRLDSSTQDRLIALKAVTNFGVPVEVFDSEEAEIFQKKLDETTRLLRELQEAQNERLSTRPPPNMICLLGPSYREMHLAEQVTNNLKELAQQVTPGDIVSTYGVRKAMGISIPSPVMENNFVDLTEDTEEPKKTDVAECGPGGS
# Summary of the method: as §1
# UniProt Q9NPJ3 = molecular target: T5, UniProt Q9NPJ3
# T5 sequence (whole entry): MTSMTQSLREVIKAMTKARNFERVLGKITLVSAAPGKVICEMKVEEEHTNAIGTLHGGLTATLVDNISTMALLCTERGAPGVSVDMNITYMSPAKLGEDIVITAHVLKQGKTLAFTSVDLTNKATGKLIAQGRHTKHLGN
# Summary of the method: as §1
smiles,measurement,setting,value
Nc1ncnc2c1ncn2[C@@H]1O[C@H](COP(=O)(O)OP(=O)(O)NP(=O)(O)O)[C@@H](O)[C@H]1O [adenylyl imidodiphosphate],NP40-soluble protein abundance,[1]; concentration: 1mM,0.944 ± 0.05
same,NP40-soluble protein abundance,[1]; concentration: 2mM,0.932 ± 0.028
same,NP40-soluble protein abundance,[1]; concentration: 4mM,0.918 ± 0.032
same,NP40-soluble protein abundance,[1]; concentration: 6mM,0.888 ± 0.085
same,NP40-soluble protein abundance,[1]; concentration: 8mM,0.874 ± 0.099
same,NP40-soluble protein abundance,[1]; concentration: 10mM,0.852 ± 0.085
same,NP40-soluble protein abundance,UniProt Q9H993; concentration: 1mM,1.01 ± 0.055
same,NP40-soluble protein abundance,UniProt Q9H993; concentration: 2mM,0.967 ± 0.012
same,NP40-soluble protein abundance,UniProt Q9H993; concentration: 4mM,0.982 ± 0.049
same,NP40-soluble protein abundance,UniProt Q9H993; concentration: 6mM,1.021 ± 0.0015
same,NP40-soluble protein abundance,UniProt Q9H993; concentration: 8mM,1.04 ± 0.033
same,NP40-soluble protein abundance,UniProt Q9H993; concentration: 10mM,1.02 ± 0.027
same,NP40-soluble protein abundance,[2]; concentration: 1mM,1.02 ± 0.026
same,NP40-soluble protein abundance,[2]; concentration: 2mM,1.03 ± 0.035
same,NP40-soluble protein abundance,[2]; concentration: 4mM,1.01 ± 0.035
same,NP40-soluble protein abundance,[2]; concentration: 6mM,0.993 ± 0.011
same,NP40-soluble protein abundance,[2]; concentration: 8mM,1.03 ± 0.03
same,NP40-soluble protein abundance,[2]; concentration: 10mM,1.04 ± 0.04
same,NP40-soluble protein abundance,[3]; concentration: 1mM,1.07 ± 0.036
same,NP40-soluble protein abundance,[3]; concentration: 2mM,1.13 ± 0.049
same,NP40-soluble protein abundance,[3]; concentration: 4mM,1.11 ± 0.06
same,NP40-soluble protein abundance,[3]; concentration: 6mM,1.16 ± 0.094
same,NP40-soluble protein abundance,[3]; concentration: 8mM,1.15 ± 0.037
same,NP40-soluble protein abundance,[3]; concentration: 10mM,1.22 ± 0.12
same,NP40-soluble protein abundance,UniProt Q9NPJ3; concentration: 1mM,0.947 ± 0.014
same,NP40-soluble protein abundance,UniProt Q9NPJ3; concentration: 2mM,0.9081 ± 0.0059
same,NP40-soluble protein abundance,UniProt Q9NPJ3; concentration: 4mM,0.9 ± 0.028
same,NP40-soluble protein abundance,UniProt Q9NPJ3; concentration: 6mM,0.974 ± 0.062
same,NP40-soluble protein abundance,UniProt Q9NPJ3; concentration: 8mM,0.976 ± 0.032
same,NP40-soluble protein abundance,UniProt Q9NPJ3; concentration: 10mM,0.948 ± 0.076

# Rewritten bar-delimited: entries from further up
smiles | measurement | setting | value
Nc1ncnc2c1ncn2[C@@H]1O[C@H](COP(=O)(O)OP(=O)(O)NP(=O)(O)O)[C@@H](O)[C@H]1O [adenylyl imidodiphosphate] | NP40-soluble protein abundance | [2]; concentration: 1mM | 1.02 ± 0.026
same | NP40-soluble protein abundance | [2]; concentration: 2mM | 1.03 ± 0.035
